Results are given in words; binding and its absence hold for the method and conditions named. Binding seen in cells or lysates may run through a third protein. Some results given as binding are weak or reduced against the parent protein; the word gives no strength.
Key:
[1] = target: T1, synaptosomal-associated protein 23 (SNAP23) (human (endogenous in HUVEC)) (UniProt O00161); test: co-IP; HUVEC lysate (50 mM Tris-HCl pH 7.4, 100 mM NaCl, 1% NP-40, 1 mM EDTA); IP with SNAP23 antibody or control IgG overnight at 4°C, protein A/G plus-agarose beads; IB vimentin; cells static, or exposed to PS or OS for 1 h
T1 sequence: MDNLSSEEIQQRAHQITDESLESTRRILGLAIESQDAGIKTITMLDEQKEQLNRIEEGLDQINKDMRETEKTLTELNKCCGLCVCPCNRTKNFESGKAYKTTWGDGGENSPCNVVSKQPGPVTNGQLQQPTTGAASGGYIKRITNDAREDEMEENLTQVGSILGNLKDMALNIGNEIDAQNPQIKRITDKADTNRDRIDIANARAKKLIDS

Amino acid sequences for entries named in this document (tags omitted).
UniProt P08670: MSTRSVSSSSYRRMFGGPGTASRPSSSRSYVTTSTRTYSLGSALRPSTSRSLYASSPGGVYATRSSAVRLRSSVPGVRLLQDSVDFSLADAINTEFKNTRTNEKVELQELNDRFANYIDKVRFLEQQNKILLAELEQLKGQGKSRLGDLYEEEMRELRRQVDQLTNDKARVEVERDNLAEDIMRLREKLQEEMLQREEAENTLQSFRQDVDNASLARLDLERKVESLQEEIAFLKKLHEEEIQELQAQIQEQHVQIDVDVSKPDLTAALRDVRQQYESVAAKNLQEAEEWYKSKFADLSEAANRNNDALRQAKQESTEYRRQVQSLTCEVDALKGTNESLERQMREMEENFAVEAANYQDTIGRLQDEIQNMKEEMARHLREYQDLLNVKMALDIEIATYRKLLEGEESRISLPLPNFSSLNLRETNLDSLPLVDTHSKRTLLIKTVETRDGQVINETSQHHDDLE

[2] = target: T1, synaptosomal-associated protein 23 (SNAP23) (human (endogenous in HUVEC)); test: proximity ligation; Duolink in situ PLA in fixed, saponin-permeabilised HUVECs sheared by PS or OS for 1 h; primary antibodies against SNAP23 and vimentin

binding [1]: binds | binding [2]: binds
Substance: vimentin (from UniProt P08670 1-466)
